Measurements reported in PubChem BioAssay AID1259415 (National Center for Advancing Translational Sciences (NCATS), 2018).
About 18,000 (4.4%) of roughly 410,000 compounds were called active. The inconclusive results got no clear call from the source; some entries with a clear call stand among them for comparison. Rule as the data show it: active = activity change below about -60%; inconclusive = no clear call, values can overlap the other calls; inactive = above about -39%.

assay: qHTS Assay for inhibitors of the human cytomegalovirus (HCMV); settings: HFF cells, HCMV-luciferase reporter, 72 h; at 57.5 µM; hits give low values
How it was run: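 After 16 h attachment at 37C, HFF cells received test compound and HCMV-luciferase (1 PFU/cell); reporter luminescence read 72 h later, data normalized against buffer-only and known inhibitor Salinomycin.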
% is scaled to controls: 0 for no effect and ±100 for the full control effect.

Row | SMILES | activity change, negative = inhibition
1 | CCCCN(Cc1ccco1)C(=O)c1cc2c(=O)[nH]c3ccc(C)cc3c2s1 | inconclusive: -44.5%
2 | COc1ccccc1CN1CCC(CNC(=O)c2cnn(-c3cccc(Cl)c3)c2C2CCN(C(=O)OC(C)(C)C)CC2)CC1 | active: -108%
3 | COc1ccc([N+](=O)[O-])cc1N(CC1CO1)S(=O)(=O)c1ccc(C)cc1 (stereo not drawn) | inconclusive: -41.2%
4 | COc1cn(CC(=O)Nc2ccc(C)cc2)c(CN2CCCCC2)cc1=O | inactive: -28.6%
5 | C/C(=N\Nc1nc(C(=O)O)cs1)c1ccccc1 | inconclusive: -45.2%
6 | COC(=O)c1[nH]c2ccc(C)cc2c1NC(=O)CN1CCCC(C)(C)C1 | inconclusive: -53.6%
7 | CCCS(=O)(=O)NC(=O)C1(C)CCCN(C(=O)Cc2ccc3ccccc3c2)C1 (stereo not drawn) | inactive: -5.55%
8 | Cc1ccc(C(=O)COC(=O)c2cccc(O)c2)s1 | inconclusive: -56.4%
9 | Cc1ccc(O)c(CO)n1 | inactive: 0%
10 | COc1ccc(-c2coc3cc4oc(=O)c5ccccc5c4cc23)cc1F | active: -84.5%
11 | Cc1cccc(CN2CCN(C3CN(Cc4cn(Cc5ccc(C(F)(F)F)cc5)nn4)S(=O)(=O)C3)CC2)c1 (stereo not drawn) | inconclusive: -43.5%
12 | CC(=O)c1ccc(NC(=S)NC(C)CCc2ccccc2)cc1 (stereo not drawn) | inconclusive: -40.7%
13 | C=CCSc1nnc(NC(=O)CCN2C(=O)C3CC=CCC3C2=O)s1 (stereo not drawn) | inconclusive: 0%
14 | CCN(CC)C(=N)/C(C#N)=N/Nc1ccccc1 | inactive: 81.2%
15 | COc1cc(C(N)=O)cc(Br)c1OCc1ccccc1 | inconclusive: -45.6%
16 | CCC(=O)N(C)CCc1cc2c(c(OC)c1/C=N/NC(=O)[C@H]1C[C@@H]1c1ccccc1)OCO2 | inconclusive: -58.8%
17 | CSc1ccc(S(=O)(=O)Nc2ccc3c(c2)OCCO3)cc1 | inconclusive: -44.7%
18 | O=C(Cn1nc(Cc2cccnc2)c2ccccc2c1=O)N1CCN(c2ccc(F)cc2)CC1 | inconclusive: -57.2%
19 | O=C(C1CCN(c2nnc(-n3cccc3)s2)CC1)N1CCN(Cc2ccc3c(c2)OCO3)CC1 | inconclusive: -44.9%
20 | CC(C)N1CCC(N2CCN(Cc3ccc4nsnc4c3)CC2CCO)CC1 (stereo not drawn) | inconclusive: -43.4%
21 | COc1cc2c(cc1OC)CN(C(=O)c1nn(Cc3ccccc3)c(=O)c3ccccc13)CC2 | inconclusive: -43.5%

Row | SMILES | activity change, negative = inhibition
22 | O=S(=O)(c1ccc2ccccc2c1)N1CCN(c2ccc(O)cc2)CC1 | active: -65.9%
23 | COc1ccc(F)cc1S(=O)(=O)N1CCCN(S(=O)(=O)c2cc(F)ccc2OC)CC1 | inconclusive: -41.1%
24 | Cc1ccccc1NC(=O)COC(=O)CNC(=O)c1sc2ccccc2c1Cl | inconclusive: -40.9%
25 | Cc1nn(C)c(C)c1NS(=O)(=O)c1ccc(N2CCCC2=O)cc1 | active: -62%
26 | O=C(Nc1ccccc1Cc1ccccc1)c1ccc2c(c1)SC1=NS(=O)(=O)CCN12 | inconclusive: -55.2%
27 | CCOc1ccc(S(=O)(=O)N2CCN(C(=O)c3ccc(Cl)c(S(=O)(=O)N4CCOCC4)c3)CC2)cc1 | active: -60.3%
28 | CCCCCCNS(=O)(=O)c1ccc(NC(=O)C2CCCO2)cc1 (stereo not drawn) | inconclusive: -43%
29 | CCOC(=O)c1cccc(NS(=O)(=O)c2cc(Br)cc3c2N(C(=O)C2CC2)CC3)c1 | inactive: -26%
30 | Cc1cccc(S(=O)(=O)N2CCC(CO)(Cc3ccccc3)CC2)c1 | inconclusive: -45.9%
31 | CCOCCCn1c(=NC(=O)c2ccco2)c(C(=O)OCC)cc2c(=O)n3cccc(C)c3nc21 | inactive: -7.65%
32 | O=C(COc1cccc(C(F)(F)F)c1)Nc1ccc(S(=O)(=O)N2CCCCC2)cc1 | inactive: -23.8%
33 | COCCCNC(=O)C[C@H]1C[C@H](C(=O)N2CCCCC2)[C@@]2(CCc3ccccc3)c3[nH]c4cc(-c5ccco5)ccc4c3CCN2C1=O | inactive: -27.7%
34 | Cc1cccc(C(=O)Nc2scc(-c3ccc(Br)cc3)c2C(=O)O)c1 | inconclusive: -52.5%
35 | CC(=O)c1cccc(NC(=O)C(=O)Nc2cccc3ccccc23)c1 | active: -60.3%
36 | CC(C)OCCCNC(=O)c1ccc(NC(=O)C2=CSCCO2)cc1 | inactive: -26.2%
37 | CCn1c(CNc2nc(-c3ccccc3)cs2)nnc1SCC(=O)NCc1ccco1 | inactive: 3.76%
38 | CCC(C)(C(=O)Nc1c(C)cccc1C)N(C)C(=O)c1ccc2ccccc2n1 (stereo not drawn) | inconclusive: -42.6%
39 | Cc1ccc(-c2nn3c(-c4ccco4)nnc3c3ccccc23)cc1S(=O)(=O)NCC1CCCO1 (stereo not drawn) | inactive: -34.8%
40 | O=C(CCCN1C(=O)/C(=C/c2ccccc2Cl)SC1=S)Nc1cccnc1 | inconclusive: -51.2%
41 | COc1ccccc1-c1c(C)nn2c(N)c(-c3ccccc3)cnc12 | active: -81.7%
42 | FC(F)(F)c1ccc(-c2nc3ccccc3s2)cc1 | inconclusive: -40.1%

Grouped by structure, the entries above containing a carbonyl joined to an NH by a bond outside any ring
Row | SMILES | activity change, negative = inhibition
2 | COc1ccccc1CN1CCC(CNC(=O)c2cnn(-c3cccc(Cl)c3)c2C2CCN(C(=O)OC(C)(C)C)CC2)CC1 | active: -108%
4 | COc1cn(CC(=O)Nc2ccc(C)cc2)c(CN2CCCCC2)cc1=O | inactive: -28.6%
6 | COC(=O)c1[nH]c2ccc(C)cc2c1NC(=O)CN1CCCC(C)(C)C1 | inconclusive: -53.6%
7 | CCCS(=O)(=O)NC(=O)C1(C)CCCN(C(=O)Cc2ccc3ccccc3c2)C1 (stereo not drawn) | inactive: -5.55%
13 | C=CCSc1nnc(NC(=O)CCN2C(=O)C3CC=CCC3C2=O)s1 (stereo not drawn) | inconclusive: 0%
15 | COc1cc(C(N)=O)cc(Br)c1OCc1ccccc1 | inconclusive: -45.6%
16 | CCC(=O)N(C)CCc1cc2c(c(OC)c1/C=N/NC(=O)[C@H]1C[C@@H]1c1ccccc1)OCO2 | inconclusive: -58.8%
24 | Cc1ccccc1NC(=O)COC(=O)CNC(=O)c1sc2ccccc2c1Cl | inconclusive: -40.9%
26 | O=C(Nc1ccccc1Cc1ccccc1)c1ccc2c(c1)SC1=NS(=O)(=O)CCN12 | inconclusive: -55.2%
28 | CCCCCCNS(=O)(=O)c1ccc(NC(=O)C2CCCO2)cc1 (stereo not drawn) | inconclusive: -43%
32 | O=C(COc1cccc(C(F)(F)F)c1)Nc1ccc(S(=O)(=O)N2CCCCC2)cc1 | inactive: -23.8%
33 | COCCCNC(=O)C[C@H]1C[C@H](C(=O)N2CCCCC2)[C@@]2(CCc3ccccc3)c3[nH]c4cc(-c5ccco5)ccc4c3CCN2C1=O | inactive: -27.7%
34 | Cc1cccc(C(=O)Nc2scc(-c3ccc(Br)cc3)c2C(=O)O)c1 | inconclusive: -52.5%
35 | CC(=O)c1cccc(NC(=O)C(=O)Nc2cccc3ccccc23)c1 | active: -60.3%
36 | CC(C)OCCCNC(=O)c1ccc(NC(=O)C2=CSCCO2)cc1 | inactive: -26.2%
37 | CCn1c(CNc2nc(-c3ccccc3)cs2)nnc1SCC(=O)NCc1ccco1 | inactive: 3.76%
38 | CCC(C)(C(=O)Nc1c(C)cccc1C)N(C)C(=O)c1ccc2ccccc2n1 (stereo not drawn) | inconclusive: -42.6%
40 | O=C(CCCN1C(=O)/C(=C/c2ccccc2Cl)SC1=S)Nc1cccnc1 | inconclusive: -51.2%

Further entries follow.

Row | SMILES | activity change, negative = inhibition
43 | O=C(CCCN1C(=O)C(c2ccccc2)Oc2cccnc21)Nc1ccccc1Br (stereo not drawn) | inactive: 4.91%
44 | CCN(CC)CCNC(=S)Nc1ccc2nc(N3CCN(CC)CC3)cc(C)c2c1 | inconclusive: -49.7%
45 | Cc1ccc(NC(=O)CSc2ncccc2C(=O)Oc2cccc([N+](=O)[O-])c2)cc1Cl | inactive: 20.7%
46 | Cc1sc(NC(=O)c2ccc(OCC(C)C)cc2)c(C(N)=O)c1-c1ccc(Cl)cc1Cl | inconclusive: -51.2%
47 | Cc1cc(C)c2c(CN(Cc3ccccc3)Cc3ccccc3)cc(=O)oc2c1 | inconclusive: -42.3%
48 | Cc1ccc(Cl)c(OC(=O)Cn2cnc3c2c(=O)n(C)c(=O)n3C)c1 | inconclusive: -40%
49 | Cc1cc(/C=N/NC(=O)C(=O)NCc2ccccn2)c(C)n1-c1cccc(Br)c1 | inconclusive: -54.6%
50 | Cc1ccc(NC(=S)/C(=C(\[O-])c2ccc(F)cc2)[n+]2ccccc2)cc1 | active: -72.9%
51 | O=C(CC1(O)C(=O)N(Cc2ccccc2)c2ccccc21)c1ccncc1 (stereo not drawn) | inconclusive: -50.3%
52 | CCOc1ccc(-c2c(C(=O)N/N=C/c3cccs3)nnn2-c2nonc2N)cc1 | inconclusive: -40.2%
53 | COc1ccc(C2=NN(C(=O)CSc3nc(=O)n4ccc(C)cc4n3)C(c3ccc(C)cc3)C2)cc1 (stereo not drawn) | inconclusive: -58.8%
54 | Cc1cccc(NC(=O)NNC(=O)c2c(Cl)c(C)nn2C)c1 | inconclusive: -54.1%
55 | Cc1cc(Nc2ccc(C)c(Cl)c2)n2nc(-c3ccccc3)nc2n1 | inactive: -27.1%
56 | CC(/C=N/NC(=O)c1ccccc1F)=C\c1ccccc1 | inactive: 54%
57 | NS(=O)(=O)c1ccc(CCNC(=O)c2ccc([N+](=O)[O-])s2)cc1 | active: -100%
58 | COc1ccc(OC)c(CNC(=O)CCS(=O)(=O)c2ccc3c(c2)oc(=O)n3C)c1 | inconclusive: -40.8%
59 | COc1cccc(C(c2nnnn2-c2ccc3c(c2)OCCO3)N2CCC(n3c(=O)[nH]c4ccccc43)CC2)c1OC (stereo not drawn) | active: -97.3%
60 | CCN(C(=O)C(NS(=O)(=O)c1cccc2nsnc12)c1ccccc1)c1ccccc1 (stereo not drawn) | inactive: -5.85%
61 | CC(=O)Nc1ccccc1OC(C)C(=O)N1CC(C)CC(C)C1 (stereo not drawn) | inconclusive: -57.8%
62 | COc1ccc(C2=NOC(C(=O)Nc3c(C)n(C)n(-c4ccccc4)c3=O)C2)cc1OC (stereo not drawn) | inconclusive: -44.8%
63 | COc1cc2c(cc1OC)CN(S(C)(=O)=O)CC2 | active: -84.7%

Row | SMILES | activity change, negative = inhibition
64 | COCCNC(=S)N1CCCN(c2nc3cc(C)ccc3cc2C#N)CC1 | inconclusive: -53.4%
65 | Cc1ccc(C)n1-c1ccc(-c2ccnc(N)n2)cc1 | active: -66.4%
66 | O=Cc1sc(=O)n(Cc2cccc(C(=O)O)c2)c1Cl | inconclusive: -41%
67 | CC(CCc1ccccc1)NC(=O)CCc1cn(C)c2ccccc12 (stereo not drawn) | inconclusive: -56.7%
68 | O=C(CCc1ccc(S(=O)(=O)NCCc2ccccc2)cc1)N1CCN(Cc2ccc3c(c2)OCO3)CC1 | active: -89.4%
69 | Cc1c(Cl)c([N+](=O)[O-])nn1CC(=O)N1CCN(C23CC4CC(CC(C4)C2)C3)CC1 | inconclusive: -50.5%
70 | CCCCc1c(C)c2ccc(OC)c(/C(C)=N\O)c2oc1=O | inactive: -17.9%
71 | CCc1ccc(NC(=O)CN2C(=O)CC(c3ccccc3)Sc3ccccc32)cc1 (stereo not drawn) | inactive: -7.27%
72 | C=CCOc1ccccc1CN1CCC(n2nccc2NC(=O)C2CCOC2)CC1 (stereo not drawn) | inconclusive: -48.8%
73 | CCCCN(C)CCNC(=O)c1cc(-c2ccc(Cl)s2)nc2ccccc12 | active: -101%
74 | CC(C)c1cc(N=O)cc(C(C)C)c1O | inconclusive: -42.7%
75 | O=C(Nc1ccccc1F)c1ccc(CN2CCN(c3ccccc3)CC2)cc1 | inconclusive: -55.7%
76 | O=C(CSc1nc(Nc2ccc(F)c(F)c2)c2ccccc2n1)c1ccc(Cl)cc1 | inconclusive: -58.9%
77 | Nn1cc(-c2ccccc2)nc1SCC(=O)Nc1ccc2c(c1)OCO2 | active: -99.5%
78 | CCCSc1nnc2n(-c3ccccc3OC)c(=O)c3c4c(sc3n12)CCC4 | inconclusive: -48.8%
79 | N#CC1=C(N)N(c2ccccc2)C(c2ccccc2)C1(C#N)C#N (stereo not drawn) | inconclusive: -50.3%
80 | CCCC(c1nnnn1C(C)(C)CC)N1CCN(C(=O)c2ccco2)CC1 (stereo not drawn) | inconclusive: -47.2%
81 | O=C(NC(Nc1nc2ccc([N+](=O)[O-])cc2s1)(C(F)(F)F)C(F)(F)F)c1ccccc1 | active: -103%
82 | Cc1cccc(-n2ncc(C(=O)NCc3ccc4c(c3)OCO4)c2C2CCN(C(=O)OC(C)(C)C)CC2)c1 | inactive: 0%
83 | Nc1c(-c2ccccc2)c(CSc2nc3ccccc3[nH]2)nn1-c1cccc(Cl)c1 | active: -94.7%

From compound 80 as far as 81, as listed above:
Row | SMILES | activity change, negative = inhibition
80 | CCCC(c1nnnn1C(C)(C)CC)N1CCN(C(=O)c2ccco2)CC1 (stereo not drawn) | inconclusive: -47.2%
81 | O=C(NC(Nc1nc2ccc([N+](=O)[O-])cc2s1)(C(F)(F)F)C(F)(F)F)c1ccccc1 | active: -103%
